Measured values published in article PMC5615048.
Results are given in words; binding and its absence hold for the method and conditions named. Binding seen in cells or lysates may run through a third protein. Some binding calls cover weakened binding; strength is not graded here.

Amino acid sequences for entries named in this document (tags omitted).
UniProt Q99PV8: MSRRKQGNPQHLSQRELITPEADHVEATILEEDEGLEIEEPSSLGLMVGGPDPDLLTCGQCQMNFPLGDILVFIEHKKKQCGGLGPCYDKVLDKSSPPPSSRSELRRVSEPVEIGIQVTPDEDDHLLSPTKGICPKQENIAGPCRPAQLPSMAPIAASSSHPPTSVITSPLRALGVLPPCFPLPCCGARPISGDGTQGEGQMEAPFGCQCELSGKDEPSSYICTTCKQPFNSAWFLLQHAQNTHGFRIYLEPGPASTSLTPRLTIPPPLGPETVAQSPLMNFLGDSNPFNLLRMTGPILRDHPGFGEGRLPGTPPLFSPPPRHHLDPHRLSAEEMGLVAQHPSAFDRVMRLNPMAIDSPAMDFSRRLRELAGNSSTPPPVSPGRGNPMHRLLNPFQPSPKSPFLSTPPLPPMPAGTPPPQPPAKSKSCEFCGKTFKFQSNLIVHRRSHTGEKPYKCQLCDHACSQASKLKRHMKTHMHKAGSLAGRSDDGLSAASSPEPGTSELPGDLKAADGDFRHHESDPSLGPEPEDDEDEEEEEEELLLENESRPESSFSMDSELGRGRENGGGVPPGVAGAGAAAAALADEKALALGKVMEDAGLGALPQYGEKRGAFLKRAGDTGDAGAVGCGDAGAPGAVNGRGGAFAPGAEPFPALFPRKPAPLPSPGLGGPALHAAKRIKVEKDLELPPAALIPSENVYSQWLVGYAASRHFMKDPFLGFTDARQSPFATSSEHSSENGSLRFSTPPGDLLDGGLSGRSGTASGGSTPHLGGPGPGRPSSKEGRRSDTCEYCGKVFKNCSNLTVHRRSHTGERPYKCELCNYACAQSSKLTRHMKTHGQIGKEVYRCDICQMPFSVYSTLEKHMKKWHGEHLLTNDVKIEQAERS
UniProt Q03347: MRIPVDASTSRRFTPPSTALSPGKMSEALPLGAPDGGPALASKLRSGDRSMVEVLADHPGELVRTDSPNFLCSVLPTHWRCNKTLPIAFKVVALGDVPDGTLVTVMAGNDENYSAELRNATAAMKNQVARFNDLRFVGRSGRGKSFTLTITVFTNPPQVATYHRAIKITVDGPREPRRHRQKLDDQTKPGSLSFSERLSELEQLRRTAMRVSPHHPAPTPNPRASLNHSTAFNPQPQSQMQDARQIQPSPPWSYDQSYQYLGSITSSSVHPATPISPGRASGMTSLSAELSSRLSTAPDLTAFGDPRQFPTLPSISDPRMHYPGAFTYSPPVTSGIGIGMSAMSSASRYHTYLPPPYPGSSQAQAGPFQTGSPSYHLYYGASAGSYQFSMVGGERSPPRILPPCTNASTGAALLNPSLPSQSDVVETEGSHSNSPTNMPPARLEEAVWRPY

Target: Bcl11b (mouse (endogenous in thymocytes)) (UniProt Q99PV8)
Assay: co-IP; nuclear extract of 10 x 10^6 total thymocytes (NE-PER kit) incubated with anti-Bcl11b antibody (A300-383A) pre-mixed with Dynabeads ProteinA, overnight at 4 °C; western blot with anti-Runx1 serum

Substance: Runx1 (from UniProt Q03347 1-451)
- binding: binds
